# Primary screen of a compound library

Protein sequences, listed by entry. Tags and fused reporters are not part of them. Residues count along the entry.
UniProt Q4DA54, 1-478: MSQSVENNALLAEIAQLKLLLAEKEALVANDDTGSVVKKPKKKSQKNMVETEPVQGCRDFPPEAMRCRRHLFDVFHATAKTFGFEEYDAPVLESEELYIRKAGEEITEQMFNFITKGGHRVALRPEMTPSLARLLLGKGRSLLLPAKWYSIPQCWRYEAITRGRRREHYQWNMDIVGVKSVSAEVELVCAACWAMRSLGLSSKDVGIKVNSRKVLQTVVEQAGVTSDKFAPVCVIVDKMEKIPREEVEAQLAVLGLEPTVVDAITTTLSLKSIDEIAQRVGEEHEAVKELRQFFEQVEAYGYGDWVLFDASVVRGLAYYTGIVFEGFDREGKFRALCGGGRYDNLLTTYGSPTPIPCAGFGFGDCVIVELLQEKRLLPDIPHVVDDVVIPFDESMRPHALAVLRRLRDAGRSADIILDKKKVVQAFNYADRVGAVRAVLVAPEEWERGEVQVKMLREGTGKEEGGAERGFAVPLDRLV
UniProt P9WPC5, whole entry: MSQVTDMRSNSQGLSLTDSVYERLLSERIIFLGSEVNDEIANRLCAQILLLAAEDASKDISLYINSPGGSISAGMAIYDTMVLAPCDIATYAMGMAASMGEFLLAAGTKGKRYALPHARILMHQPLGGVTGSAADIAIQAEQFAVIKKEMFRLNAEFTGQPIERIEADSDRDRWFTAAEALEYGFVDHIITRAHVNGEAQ
UniProt P9WPC3, whole entry partner: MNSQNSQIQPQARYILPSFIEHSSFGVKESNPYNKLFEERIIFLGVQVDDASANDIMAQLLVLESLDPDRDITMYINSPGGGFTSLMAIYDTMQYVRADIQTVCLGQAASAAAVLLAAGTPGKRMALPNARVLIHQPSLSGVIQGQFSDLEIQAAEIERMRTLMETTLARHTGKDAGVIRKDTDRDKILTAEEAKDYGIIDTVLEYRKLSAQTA

From ChEMBL document CHEMBL3988442, “University of Dundee, Small-Polar-MMV Screening Library” (2021).

Values are the deposited “Percent Effect”, in %.
The record does not define 0% and 100%; most values in the screen are far below 50% and negative numbers occur (in some assays of this library far below -100).
The compounds are a random part of those screened.

A: 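Enzyme assay of histidyl-tRNA synthetase; the read-out is not stated. Target: Histidine-tRNA ligase, Trypanosoma cruzi CL Brener (UniProt Q4DA54). Tested at 30 µM. Higher reads as stronger inhibition (inferred: compounds with an IC50 in retests scored well above the rest). Size under these conditions: about 69,000 compounds, about 31 of them at 50% or above in at least one test.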
B: 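Protease assay of ClpP1P2, read by the AMC dye that it sets free. Target: ClpP1P2, Mycobacterium tuberculosis (UniProt P9WPC5 and UniProt P9WPC3). Tested at 50 µM. Direction is inferred from only a few compounds that gave an IC50; most scored high, so higher reads as stronger inhibition. Most other retested compounds had strongly negative values. Size under these conditions: about 69,000 compounds, about 10 of them at 50% or above in at least one test.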

| # | structure | A | B |
|---|---|---|---|
| 1 | `Cc1cc(C)cc(Nc2nc(C)cc(=O)n2CC(=O)NC(C)C)c1` | 17% | 9.497% |
| 2 | `Cc1ccc(OC2(C(=O)O)CCN(C(=O)c3nc(C)oc3C)CC2)cn1` | 2.479% | 8.97% |
| 3 | `O=C1[C@@H]2CCN(Cc3ccc(F)cc3)C[C@@H]2OCCN1c1cccnc1` | 8.021% | -8.791% |
| 4 | `Cc1nc(CN2CCOCC3(CCCN(c4cnccn4)C3)C2)cs1` (centres unmarked) | 5.882% | -14.35% |
| 5 | `Cc1ccc(C(=O)NS(=O)(=O)c2cc(F)ccc2F)c(=O)[nH]1` | 2.339% | -14.11% |
| 6 | `Cc1oc(-c2ccco2)nc1CC(=O)N1CCC(C(O)C(F)(F)F)CC1` (centres unmarked) | -3.396% | 3.243% |
| 7 | `CCn1c(=O)nc2n1C(=O)N(c1cccc(Cl)c1)C2` | 1.639% | 4.28% |
| 8 | `CC(C)N(CC(=O)Nc1cccc(C#N)c1)C1CC1` | 5.455% | -2.531% |
| 9 | `Cc1ccn(CCC(=O)N2CCCC2c2nnc(-c3scnc3C)o2)n1` (centres unmarked) | 6.061% | 0.7149% |
| 10 | `COc1ccc(C(C)N2CCC(NS(C)(=O)=O)CC2)cc1Cl` (centres unmarked) | 4.598% | 2.427% |
| 11 | `CN1CCOC(CNC(=O)CCCOCCc2ccccc2)C1` (centres unmarked) | -2.29% | 5.877% |
| 12 | `CC(NCC(=O)N(C)C1CC1)c1ccc(S(C)(=O)=O)c(F)c1` (centres unmarked) | 6.667% | -5.998% |
| 13 | `CO[C@H]1CN(S(=O)(=O)c2ccccc2F)C[C@@]12CCCO2` | 9.398% | -4.031% |
| 14 | `COCCN1CC[C@@H](OC)[C@@H]1Cc1ccccc1` | -1.22% | 11.63% |
| 15 | `Cc1ccc2c(c1)OCCCC2NCc1nccn1Cc1ccccc1` (centres unmarked) | 6.667% | -11.88% |
| 16 | `C1CCC(c2nn3c(C4CCCO4)nnc3s2)C1` (centres unmarked) | 1.493% | -18.06% |
| 17 | `CCOCC1COCCC12CCN(C(=O)C1=CCCC1)CC2` (centres unmarked) | 6.329% | -0.641% |
| 18 | `CC(C)c1nc(CN(C)C2CCCN(c3cccnn3)C2)no1` (centres unmarked) | 0.5747% | -7.771% |
| 19 | `Cc1cc(N2CCc3c(ncn3C)C2)nc(N)n1` | 3.191% | -0.3569% |
| 20 | `CCC(=O)N1CCCN(c2cncc(-n3nc(C)cc3C)n2)CC1` | 8.621% | -73.32% |
| 21 | `CCOCCn1c(=O)[nH]c2cc(C(=O)N(C)Cc3cnn(C)c3)ccc21` | 4.167% | -6.345% |
| 22 | `Cc1ncsc1CNc1cc(N2CCCC2CO)ncn1` (centres unmarked) | 0.8547% | -20.28% |
| 23 | `CN[C@@H]1CCC[C@@H](Oc2ccccc2Oc2ccc(C)cc2)[C@@H]1O` | 6% | -18.61% |
| 24 | `CCS(=O)(=O)CCNC(=O)c1ccc(-c2ccc(C)cc2)cc1F` | 0% | -4.333% |
| 25 | `c1cc2c(cc1C1(CNC3=NCCN3)CCCC1)OCCO2` | 11.7% | -6.54% |
| 26 | `CS(=O)(=O)Cc1nc(CN2CCC(C(F)(F)F)CC2)cs1` | 2.809% | -2.71% |
| 27 | `Clc1cnccc1N1CCC(OC2CCOCC2)CC1` | 4.255% | -12.6% |
| 28 | `COCCCNC(=O)Nc1ccc(OCc2noc(C3CC3)n2)cc1` | 3.448% | 6.19% |
| 29 | `CCCc1nc(CNC(=O)Cc2csc(C)n2)cs1` | 14.81% | -3.774% |
| 30 | `CC(C)n1ncc2c1NC(=O)CC21C(=O)Nc2c(Cl)cc(Br)cc21` (centres unmarked) | -0.5848% | -1.821% |
| 31 | `CCS(=O)(=O)N1CCC(n2nc(-c3cc(C)oc3C)ccc2=O)CC1` | 3.846% | 15.7% |
| 32 | `CN1CCN(c2cc(N3CCCC3CO)ncn2)Cc2ccccc21` (centres unmarked) | 8.403% | -10.47% |
| 33 | `Cc1nc[nH]c1CN1CCn2nc(CN3Cc4ccccc4C3)cc2C1` | 13.45% | -0.6813% |
| 34 | `N#Cc1cccc(CNCCNC(=O)Cc2cccc(F)c2)c1` | 1.149% | -8.647% |
| 35 | `COc1ccc2c(c1)C(=O)N(C)C1(CCN(CC=C(C)C)CC1)N2` | 5.882% | -103.3% |
| 36 | `Cc1cnc(CN(C)C2CCN(Cc3nnc(C4CC4)o3)C2)o1` (centres unmarked) | 3.704% | -5.843% |
| 37 | `CN1CCN(Cc2ccc(F)cc2)Cc2cccnc21` | 14.29% | 13.73% |
| 38 | `Cc1ccoc1C(=O)N1CC(C(=O)NCC2CC2)C2(CCOCC2)C1` (centres unmarked) | 5.376% | 6.129% |
| 39 | `CN(Cc1cc(C2CC2)[nH]n1)C(=O)c1ccccc1C1CCNC1` (centres unmarked) | -1.117% | -6.783% |
| 40 | `Oc1ccccc1-c1n[nH]c(C2CC2)n1` | 5.804% | -2.799% |
| 41 | `Fc1cnc(N2CCCC3(CN(Cc4cccs4)CCO3)C2)nc1` (centres unmarked) | -9.497% | -7.803% |
| 42 | `CC(=O)N(C)CC(=O)NC1(c2ccc(Br)cc2)CC1` | 6.627% | -1.796% |
| 43 | `Cc1ccc(S(=O)(=O)Cc2noc([C@@H]3C[C@@H](O)CN3C)n2)cc1` | 3.96% | -15.32% |
| 44 | `CCN(C(=O)CCCOC)C(c1ccc(Cl)cc1)c1ccccn1` (centres unmarked) | 5.288% | -15.85% |
| 45 | `NC(=O)C1CCN(C(=O)c2cccc(CN3CCOCC3)c2)CC1` | -2.439% | -17.35% |
| 46 | `Cc1ccc(CN2C[C@@H]3CCCO[C@@H]3[C@H](NS(C)(=O)=O)C2)o1` | 5.882% | -2.882% |
| 47 | `CC(C)(C)OC(=O)N[C@H]1CCN(c2cncc(Br)c2)C1` | -1.818% | -7.357% |
| 48 | `CC1c2ncc(CNC(=O)C3CC3)n2CCN1Cc1nccs1` (centres unmarked) | 5.714% | -19.56% |
| 49 | `Cc1nc(C2CCCN(C(=O)CO)C2)cc(N2CCOCC2)n1` (centres unmarked) | -4.132% | -11.39% |
| 50 | `CC(C)c1ncc(Cl)c(C(=O)N2CCN(C3CC3)CC2)n1` | 2.155% | -7.891% |
| 51 | `Cc1cc(CNS(C)(=O)=O)ccc1N(C)C` | 9.045% | -2.232% |
| 52 | `CCOC(=O)c1cc2n(n1)CCCO2` | 1.212% | -1.007% |
| 53 | `c1cc(CNCCC2CCCO2)ccn1` (centres unmarked) | 0.5348% | 8.473% |
| 54 | `COc1cc(C(=O)N2CCCC(c3cc(C)[nH]n3)C2)ccc1C` (centres unmarked) | 6.686% | -6.008% |
| 55 | `CC(=O)NCCCNCc1cc(F)ccc1Br` | 4.712% | -12.4% |
| 56 | `CN1Cc2ccccc2CC2(CCN(Cc3nccn3C)CC2)C1=O` | 10% | -6.71% |
| 57 | `COc1ccc(C(=O)N(CCO)Cc2ccccc2)c(OC)n1` | 3.409% | 6.817% |
| 58 | `CS(=O)(=O)N1CCN(C(=O)c2cccc(Cl)c2)CC2(CNC(=O)C2)C1` (centres unmarked) | 4.598% | 2.173% |
| 59 | `CC(C)c1nnc2ccc(N3CCC(C(=O)NC4CC4)CC3)nn12` | -0.5848% | -9.088% |
| 60 | `CCC(CC)N(Cc1ccc2c(c1)OCO2)C(=O)c1ccc(=O)n(C)c1` | 7.065% | -9.814% |
| 61 | `CCN1CCCC1CNC(=O)CCc1cccs1` (centres unmarked) | 6.383% | -3.651% |
| 62 | `O=C(C1CC1)N1CC[C@H](c2nnc(Cc3c[nH]c4ccccc34)o2)C1` | 4.478% | -13.39% |
| 63 | `Cc1noc(CN(CCO)Cc2cc(Br)ccc2F)n1` | 5.208% | -11.21% |
| 64 | `CCCOc1ccc(Cl)cc1C(=O)N1CCC(n2cncn2)CC1` | -1.293% | -11.59% |
| 65 | `CNc1cc(C2CCCN(C(=O)c3ccc(=O)[nH]n3)C2)ccn1` (centres unmarked) | 4.135% | -34.08% |
| 66 | `Cc1noc(C)c1C(=O)N(C)C(C)c1ccncc1` (centres unmarked) | 7.143% | -5.609% |
| 67 | `Cc1nc(-c2ncc(C(=O)NCCNc3ncccc3C)c(O)n2)cs1` | 0% | -17.78% |
| 68 | `CC(C)NC(=O)N1CC(=O)c2sc(Nc3ccc(C#N)cc3)nc2C1` | -6.78% | 8.196% |
| 69 | `Clc1cc(CN2CCCC(Cn3cncn3)C2)c2ncccc2c1` (centres unmarked) | 4.167% | -11.82% |
| 70 | `Cc1ccc(C)c(SCC(=O)Nc2cccc(C(=O)N(C)C)n2)c1` | 3.448% | -6.611% |
| 71 | `Cc1nc(CNC(=O)NCC(O)c2cccc(Cl)c2)cs1` (centres unmarked) | 2.5% | 5.671% |
| 72 | `Cc1noc(C2CCCN(C(=O)CCNc3ncccn3)C2)n1` (centres unmarked) | 5.572% | -3.493% |
| 73 | `COc1ccc(CN2C[C@@H]3OCC(=O)N(CC(N)=O)[C@@H]3C2)cc1` | 2.488% | -2.994% |
| 74 | `Cc1cccnc1CN1CCN(c2noc(-c3ccccc3)n2)CC1` | -0.5181% | 12.65% |
| 75 | `Cc1nc2cc(=O)[nH]n2c(C)c1CC(=O)Nc1cnn(C(C)(C)C)c1` | 8.929% | -8.406% |
| 76 | `COCCN1C[C@@H]2[C@@H](OC)CCN(C(=O)Cc3ccccc3)[C@@H]2C1` | 4% | -0.4939% |
| 77 | `Cc1ccc(NC2CCN(C(=O)c3ccc(C)o3)CC2)nn1` | 9.412% | -39.26% |
| 78 | `CNC(=O)Cc1noc(Cc2ccc3c(c2)CCCC3)n1` | 0.5618% | -8.692% |
| 79 | `CCOc1cccc(NCc2cnc(N3CCN(C)CC3)nc2)n1` | 2.105% | -8.5% |

5 of the entries, repeated:

{"structure": "CO[C@H]1CN(S(=O)(=O)c2ccccc2F)C[C@@]12CCCO2", "A": 9.398, "B": -4.031}
{"structure": "CCOCCn1c(=O)[nH]c2cc(C(=O)N(C)Cc3cnn(C)c3)ccc21", "A": 4.167, "B": -6.345}
{"structure": "CCOc1cccc(NCc2cnc(N3CCN(C)CC3)nc2)n1", "A": 2.105, "B": -8.5}
{"structure": "Clc1cnccc1N1CCC(OC2CCOCC2)CC1", "A": 4.255, "B": -12.6}
{"structure": "CN(Cc1cc(C2CC2)[nH]n1)C(=O)c1ccccc1C1CCNC1", "stereo": "centres unmarked", "A": -1.117, "B": -6.783}